Assay results published in PubChem BioAssay AID1508600 (Functional Genomics Laboratory (NCATS/FGL), 2020).
Screen size: about 53,000 sequences; about 3,700 (7%) were called active.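 Rule for the calls: active = gene knockdowns whose robust z-score for IL-1 alpha signal is at least 2 or at most -2, so actives lie on both sides; inactive = the rest.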 Some of the results follow.

experiment: Components of the Cytosolic LPS Sensing Pathway: Gene Identification via Genome-wide siRNA Screen; details: RAW264.7 macrophages, IL-1a HTRF, actives lie on both sides, screened at 100 nM (by protocol), cells primed 5 h with Pam3CSK4 first;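 note: robust z of the log signal after scaling to non-targeting control siRNA wells of the plate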
Procedure, shortened: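 RAW264.7; siRNA 100 nM final, RNAiMAX, 48h 37 degrees C; Pam3CSK4 5 h; LipidA + TransIT-TKO 24 h; IL-1a HTRF; CellTiter-Glo viability; robust z vs negative-control median.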

Row | Sequence | z-score
1 | GCAGUAUCUAUGCUCUUGATT against Hand1 | inactive: -1.15
2 | GCUUGUUCGGUCCUUUGAUTT against Fbxw9 | inactive: 0.56
3 | GGUAGACUUCGACAUCAAGTT against Hs6st2 | inactive: 1.65
4 | GACGCAGAUGGUAUUUUUUTT against Orm2 | inactive: 1.24
5 | CCUAGUCAAGGAUAGGUAUTT against AY702103 | inactive: -1.01
6 | GGAUAUCAGGAACAUAGUATT against P3h3 | inactive: -0.735
7 | GGGAUUUUAUCAUACAAACTT against Ppil4 | inactive: 0.774
8 | GGAUGUGAGUGAGACUGUCTT against Mtm1 | inactive: 0.781
9 | GCAAUAAUGGCAAGAAUGGTT against Otud7a | inactive: -0.102
10 | GAACUGGACAACUUUCUCCTT against Olfr1355 | inactive: -0.0399
11 | GGCACUUUUUGUUUUCAUGTT against Nckap1 | inactive: 0.505
12 | GUUUGCUGCACCCUACUUATT against H2bc21 | inactive: -0.727
13 | CCUGAUUGUCACUCCUUUUTT against Pde4b | inactive: 0.753
14 | CCGACUAAUGCCAUCUUCATT against Pcbp2 | inactive: -1.29
15 | GGCAGAAUAUGAGUUUGAUTT against Camk1d | inactive: -0.161
16 | GGAAGAUCGAGAAUGUUCCTT against Ppih | inactive: 0.174
17 | GCAAUUACCUCUGAAAGGCTT against ccdc198 | inactive: -0.922
18 | GGGCAGUUUUCUCUAUAGGTT against Zfp740 | inactive: 1.26
19 | UAUGCUGGCAGGGACACCUTT against Scarf1 | inactive: 0.263
20 | GGUUUUAUUAACUCUGUGATT against Olfr1013 | inactive: 0.453
21 | GGUUGCAUCACAGCGUAUATT against Phlpp1 | inactive: 0.759
22 | GGUGUUGUCAGAAGUUUAATT against Slc22a13b | inactive: 1.8

Row | Sequence | z-score
23 | CGAAUAGGAUUUCGACCUGTT against Fbxw19 | inactive: 0.36
24 | GCAUAGAUUCUCGAGUUUATT against Sugt1 | inactive: 0.754
25 | GCAGGCUACCUCUAAUCCATT against Slc23a3 | inactive: -0.241
26 | GGCUAGAGCAUCAAGGAAUTT against Vps26a | inactive: 0.626
27 | CGUUUGCUUUUCAUCGUGGTT against Olfr154 | inactive: 0.107
28 | GGAAAGUUGAAGAUUAAAGTT against Hsdl2 | inactive: 0.235
29 | GGCAAUGAGAGUGCAUAUGTT against Lypd3 | inactive: -1.61
30 | CCUCCAGGAUUAUCGUGAUTT against Dnajc6 | inactive: -1.22
31 | GCAAAACGUAGCAGAAUUGTT against Magee1 | inactive: 0.227
32 | GGUGGACAACGUGUUUGACTT against Atg101 | inactive: 1.43
33 | CCUGAAUUACAGGGACCAGTT against Znrd1 | active: 3.49
34 | CCUUUUAGUGAAAAUAGCATT against A430010J10Rik | inactive: -0.924
35 | CGUGAUAGUAGUGAAGUGATT against Usp22 | inactive: -0.626
36 | CCUGACAAGGUUUUAGCCUTT against Ttpal | inactive: 0.793
37 | GCCUAUCCCGAUGUUGUUGTT against Ap3m1 | inactive: -0.825
38 | CGAGCUGAACAGAAUGAUATT against Krt85 | inactive: 0.265
39 | UCUUACACUUCGUGUUCCATT against Gpr6 | active: 3.12
40 | GGAUUUGUGAAGUUUUUUGTT against Psmd5 | inactive: 1.68
41 | CCAGACCACUUCCCAUUCUTT against Aqr | inactive: -0.798
42 | GGUCAUGCAAUUUAUAAGATT against Fig4 | inactive: -0.0415
43 | CGAUUUAGUGGAACAAAUGTT against Nln | inactive: -0.291
44 | GGUUCACAUGUACAUUAAATT against Cracd | inactive: -0.156

Row | Sequence | z-score
45 | GGCAAAGCUAAAGGCCAAATT against Ensa | inactive: 0.38
46 | GCGAGUACUUUCCGCUGUUTT against Ltc4s | inactive: 0.508
47 | GGAAUUUGUCCAGAGUCACTT against Treh | inactive: -1.41
48 | GGCCAUGAUUGUGUUUCAGTT against Tspan8 | inactive: 1.76
49 | GGAAGAAUGGGCUUUCUAGTT against Pask | inactive: 0.0833
50 | GCUAUGACUUCAACGACUATT against Pcsk4 | inactive: -0.309
51 | CCAGUCACGUUUUAAAAGCTT against Ccdc166 | inactive: -0.696
52 | GGAUGACAUCUCUAUCUUUTT against Atxn10 | inactive: 0.559
53 | GCUUUAAUGUUGACCUAGUTT against Lgals8 | inactive: -0.403
54 | GGUCUUUGCCUUGAUUCAUTT against Hmgxb3 | inactive: -0.576
55 | GGGAGGAUAUUUUUUUGAATT against Cemip | inactive: -0.0737
56 | GGAACGACCAAAAGUGACGTT against Emcn | inactive: 0.525
57 | GGGUCAGGACUCCUUUAUGTT against Aen | inactive: -1.94
58 | CGGGCUGUUCAGAAAUCGATT against Trmu | inactive: -0.958
59 | GGUGACAAACCGAUACUUGTT against Cope | inactive: -0.966
60 | GGUGGCACAUCAGUGUUUGTT against H2al2a | inactive: 1.16
61 | GCUGACUUCGGAGAUUAUATT against Ptpn14 | inactive: -0.0471
62 | CCUCUGUUUGCACUUAUUATT against Gabrr1 | inactive: -0.232
63 | GGUUAUCGCCCAAUGACGGTT against Dmrt2 | inactive: 0.469
64 | GGAGGUCCAAGUAGCUCUUTT against Olfr5 | inactive: -1.11
65 | GGCCUAAACACGGUUUUCATT against Ppm1n | active: 3.72
66 | GGUGGUGUUAAAAUAUACUTT against Gnl3 | active: 3.07

Laid out differently: results already given

| Row | Sequence | z-score |
| --- | --- | --- |
| 50 | GCUAUGACUUCAACGACUATT against Pcsk4 | inactive: -0.309 |
| 56 | GGAACGACCAAAAGUGACGTT against Emcn | inactive: 0.525 |
| 62 | CCUCUGUUUGCACUUAUUATT against Gabrr1 | inactive: -0.232 |

Following part:

Row | Sequence | z-score
67 | GCUAAUCCCAUCUCGUCCUTT against 3110009E18Rik | inactive: 1.15
68 | GGUGUCCUCCUUUCAGUUUTT against Tas2r114 | inactive: -0.16
69 | GGUGAUGGUCCAGAUUAACTT against Plpbp | inactive: -0.0895
70 | GGUUCUGGUUUAGAUGCUATT against H2aw | active: 2.36
71 | GGAGUAGUGAAGAUUCGGATT against Fdft1 | inactive: 0.651
72 | GGCCUGAAGACAGACAUGATT against C030016D13Rik | inactive: -1.2
73 | GGGCUGAGUUAGAUUAAAATT against Cds1 | inactive: 0.65
74 | GGCUAUUUUUUAGCAAAGATT against Wasl | inactive: -0.0743
75 | GGCAAGUUAAAAAUGGUAGTT against Tjp1 | inactive: -1.99
76 | GGAAUAAUAUGCAUGUAGATT against Rab21 | inactive: -0.911
77 | GGAAGUGGUUGCUUAGGCATT against 1700041G16Rik | inactive: 0.363
78 | CCGUGAAAGUACAUUGUAUTT against Dennd11 | inactive: 0.121
79 | GGAACAUGUCCAUUAUCACTT against Vmn1r232 | inactive: 0.811
80 | GUAUGCUGGCAGCUCAUUGTT against Klra6 | inactive: -0.883
81 | GCAUGACCUCAGGUUUUCUTT against Il20rb | inactive: 1.57
82 | GGACUCUGUAGUUGAAGAUTT against Pogz | inactive: -0.882
83 | GGACUUGAUUUAGUGGAAGTT against Cwc22 | inactive: -0.294
84 | CGUAUGAAGCUUAAUAGCATT against Polq | inactive: -0.219
85 | GGAAAACACAACAUGAUACTT against Doc2b | inactive: 0.141
86 | GGAGCCACUGGAAAAUUUATT against Ralgapb | inactive: 1.47
87 | CCGAUUGAAUGAACAACGGTT against Zfp131 | inactive: -1.41
88 | GCAGAGGACCAUUAAUUUATT against Cd180 | inactive: 0.499

4 entries from above, with each value named:
GGUUCUGGUUUAGAUGCUATT against H2aw
  z-score: active: 2.36
GGCAAGUUAAAAAUGGUAGTT against Tjp1
  z-score: inactive: -1.99
GCAUGACCUCAGGUUUUCUTT against Il20rb
  z-score: inactive: 1.57
GGAGCCACUGGAAAAUUUATT against Ralgapb
  z-score: inactive: 1.47

(list continues)

Row | Sequence | z-score
89 | GGCCAAAAGUAUGAAAGUATT against Tspan1 | inactive: 0.45
90 | GGAGCCAUUAUAUAUGUCATT against Abi2 | inactive: 0.962
91 | GAUGAAGCUGCUUUACCACTT against Hes5 | inactive: 0.318
92 | CCCAAGGUGAUGGUGUCCUTT against Hspa1l | inactive: 1.68
93 | GGUUCUUUUGCCUUCAGUGTT against Slc7a10 | inactive: 0.67
94 | GUUCUGCUUUUUGUCAUAUTT against Olfr1431 | inactive: -0.79
95 | GGAAAAAGAGGCCUCAAAGTT against Nek5 | inactive: 1.46
96 | GCUACUAUGUGCCUGUGACTT against Oc90 | active: -2.21
97 | GGUGUGCAUUGGAAUUAUGTT against Mogat1 | inactive: -0.428
98 | GCCAGCUUACGAACAUUAATT against Mctp1 | inactive: -0.659
99 | GGAGAUUUCCAAGAUUCUGTT against Abcc4 | inactive: -0.348
100 | CCUGUACAUUGUGUAAUGUTT against Pcdh8 | inactive: 0.0925
101 | GGUCCUGAUGUUGAAGGCATT against Rinl | inactive: 0.647
102 | CCAGGUGAUGUCUAGAUAATT against S1pr5 | inactive: -0.119
103 | CGUGUUUGUAGAUAAACCATT against Kcnh8 | inactive: -0.392
104 | GCCAUUAAAGGUAACACUGTT against Tmbim7 | inactive: 0.0423
105 | GGAACAGAAAGAAAAAGACTT against Plcd4 | inactive: -1.12
106 | GGAAUACAAUGUCUCCAUCTT against Il3ra | inactive: -0.518
107 | GCUCUCAGCAAAAACCGAGTT against Kif26b | active: 2.98
